Reference: PubChem BioAssay AID540276 (National Center for Advancing Translational Sciences (NCATS), 2011)
Among all 300,000 compounds or so, about 5,400 (1.8%) were called active. Inconclusive means that the source gave no clear call. Such entries were picked first, then a sample of the others. The call rests on the fitted dose curve; tested in HEK293 cells. Potencies beside an inconclusive call are fits to weak or partial responses and may not hold up. More than one record can exist for a structure, and the calls need not agree.

Experiment: qHTS for inhibitors of binding or entry into cells for Marburg Virus
Conditions: Marburg virus pseudotyped entry inhibition, cell reporter; activity change, negative = inhibition: at 37.8 µM (top of the series) unless noted
On the % scale 0 is the no-effect control and ±100 the full control effect; potency means the concentration at half of the fitted maximal effect.

| Compound | Potency | activity change, negative = inhibition |
| --- | --- | --- |
| CC(/C=N\N1CCN(Cc2ccc(C)cc2)CC1)=C\c1ccccc1 | inconclusive: 1.12 µM [activator, partial curve, poor fit] | – |
| O=C(NCc1ccco1)c1ccc2c(c1)C(=O)N(C1CCCCC1)C2=O | inconclusive: 0.231 µM [inhibitor, full curve, poor fit] | – |
| COc1cc(/C=C/c2onc(C)c2[N+](=O)[O-])cc(OC)c1OC | inconclusive: 1.41 µM [inhibitor, partial curve, poor fit] | – |
| Cc1ccc(SCCC(=O)N2CCN(S(=O)(=O)c3ccccc3)CC2)cc1 | inconclusive: 12.6 µM [inhibitor, partial curve, poor fit] | – |
| COc1cc2c(cc1OC)[C@@H]1C(=O)c3ccc4c(c3O[C@@H]1CO2)C[C@H](C(C)C)O4 | active: 7.08 µM | – |
| O=C(c1ccccc1)N1CCSC1=S | inconclusive: 0.58 µM [inhibitor, full curve, poor fit] | – |
| Cc1sc2c(=O)n3c(nc2c1C(=O)NC1CCCCC1)CCCCC3 | inconclusive: 0.398 µM [activator, partial curve, poor fit] | – |
| CCOC(=O)c1ccc(C(=O)OCC)nc1 | – | inactive: -0.86% |
| O=C(O)CCc1ccc(-c2ccccc2)n1NC(=O)c1cccs1 | inconclusive: 1.12 µM [activator, full curve, poor fit] | – |
| COc1cccc(C(=O)CC2(O)C(=O)Nc3ccc(Cl)cc32)c1 (stereo not given) | inconclusive: 10 µM [activator, partial curve] | – |
| O=C(/C=C/c1ccc2ccccc2n1)c1cc(Cl)ccc1O | – | inactive: 2.97% [at 46.1 µM] |
| CSc1snnc1-c1ccccc1 | inconclusive: 1.12 µM [inhibitor, partial curve, poor fit] | – |
| CC1=CC2=NC(=O)/C(=C\c3cccn3CCOc3cc(C)ccc3C)C(=N)N2O1 | inconclusive: 3.55 µM [inhibitor, partial curve] | – |
| CCCOc1ccc(CN(C(=O)c2cc(=O)c3ccc(C)cc3o2)C2CCS(=O)(=O)C2)cc1 (stereo not given) | inconclusive: 15.8 µM [inhibitor, single point] | – |
| Cc1nc2cc(NC(=O)NCc3ccco3)ccc2n1C | – | inactive: 21.4% |
| O=C(CSc1nc2[nH]ncc2c(=O)[nH]1)N1CCCCC1 | inconclusive: 2 µM [inhibitor, partial curve, poor fit] | – |
| CCc1nc(SCCO)c2oc3ccccc3c2n1 | – | inactive: 14% |
| O=C(Nc1ccc(Cc2ccncc2)cc1)c1ccc(Br)o1 | – | inactive: 2.02% [at 46.1 µM] |
| O=C(CN1CCCC1)Nc1ccc2c(c1)CCC2 | – | inactive: -13.3% [at 46.1 µM] |

Taken from the listing, two compounds:

| Compound | Potency | activity change, negative = inhibition |
| --- | --- | --- |
| O=C(/C=C/c1ccc2ccccc2n1)c1cc(Cl)ccc1O | – | inactive: 2.97% [at 46.1 µM] |
| CSc1snnc1-c1ccccc1 | inconclusive: 1.12 µM [inhibitor, partial curve, poor fit] | – |
